Results published in patent publication US5023079A, “Heptaene V-28-3 antibiotic derivative” (Ajinomoto Co., Inc., priority 1987, dated 1991).
Values after ≈ are worked out from the molar mass of the structure shown.

Test system: Candida albicans ATCC 10231
Assay: Minimal inhibitory concentration (MIC) on Sabraud's agar
Assay type: cell-based
Settings: ATCC 10231 / ATCC 102331, 48 h, read-out: Minimal inhibitory concentration (MIC)
Procedure: The experiment (Table 1) was made by the usual MIC measuring method using Sabraud's agar. The MIC was determined 48 hours later.

## C[C@@H]1[C@H](O)[C@@H](C)/C=C/C=C/C=C/C=C/C=C/C=C/C=C/[C@H](O[C@@H]2O[C@H](C)[C@@H](O)[C@H](N)[C@@H]2O)C[C@@H]2O[C@](O)(C[C@@H](O)C[C@@H](O)[C@H](O)CC[C@@H](O)C[C@@H](O)CC(=O)O[C@H]1C)C[C@H](O)[C@H]2C(=O)O [amphotericin B]
  MIC: 1.56 µg/mL (≈ 1.69 µM)
